Data taken from paper PMC4794571.
Negatives hold for the conditions tested. For at least one entry, the source does not settle the construct or the ends of the probe. For part of these data: Weaker means in comparison with the reference protein, sequence or condition of that experiment.

Legend:
Experiment in all cases: microarray fluorescence
[1] = system: Cy3-IgE (direct labeling); settings: temperature not stated, commercial protein, protein details: Cy3 label, D/P 2.4 unless stated, folded or branched DNA
Cy3-thrombin = settings: temperature not stated, commercial protein, protein details: Cy3 label, folded or branched …
[2] = system: biotin-IgE (indirect labeling); settings: temperature not stated, commercial protein, protein details: biotin, detected with Cy3-streptavidin, folded or branched DNA
[3] = not significant; T linker to array surface; PBS-based wash: 8.1 mM Na2HPO4, 137 mM NaCl, 1 mM MgCl2, pH 7.4)
[4] = direct label, reduced at long linkers, above SA; T linker to array surface; PBS-based wash: 8.1 mM Na2HPO4, 137 mM NaCl, 1 mM MgCl2, pH 7.4)

CACGTTTATCCGTCCCTCCTAGTGGCGTG [IgE_17-1 (IgE_D17-1)]
binding result ([1]; direct label, D/P 0.41; T linker to array surface; PBS-based wash: 8.1 mM Na2HPO4, 137 mM NaCl, 1 mM MgCl2, pH 7.4)): binds
binding result ([1]; direct label, D/P 2.4; T linker to array surface; PBS-based wash: 8.1 mM Na2HPO4, 137 mM NaCl, 1 mM MgCl2, pH 7.4)): no binding

CCTGGGGGAGTATTGCGGAGGAAGG [ATP 25.42]
binding result (Cy3-thrombin; [3]): no binding

GGAACGACGGGTGGGTGGGAGGGAGATCGTTCC [RF3]
binding result (Cy3-thrombin; enhanced relative to TFBS; T linker to array surface; PBS-based wash: 8.1 mM Na2HPO4, 137 mM NaCl, 1 mM MgCl2, pH 7.4)): binds

GGAACGACGGTGGTGGAGGAGATCGTTCC [RF2]
binding result (Cy3-thrombin; T linker to array surface; PBS-based wash: 8.1 mM Na2HPO4, 137 mM NaCl, 1 mM MgCl2, pH 7.4)): no binding

GGGGCACGTTTAGCCGTCCCTCCTTGTGGCGTGCCCC [ID17-4DM13_25]
binding result [1, 4]: binds more weakly

GGGGCACGTTTATCCGACCCTCCTAGTGGCGTGCCCC [ID17-4SM17]
binding result [1, 4]: binds more weakly

GGGGCACGTTTATCCGTCCCGCCTAGTGGCGTGCCCC [ID17-4SM21]
binding result ([2]; indirect label, weak, no fit; T linker to array surface; PBS-based wash: 8.1 mM Na2HPO4, 137 mM NaCl, 1 mM MgCl2, pH 7.4)): binds more weakly
binding result ([1]; direct label, reduced, above SA, no acceptable Kd fit; T linker to array surface; PBS-based wash: 8.1 mM Na2HPO4, 137 mM NaCl, 1 mM MgCl2, pH 7.4)): binds more weakly

GGGGCACGTTTATCCGTCCCTCCTAGTAGCGTGCCCC [ID17-4SM28]
binding result [1, 4]: binds more weakly

GGGGCACGTTTATCCGTCCCTCCTAGTGGCGTGCCCC [IgE_17-4 (IgE_D17-4), T linker]
binding result (Cy3-thrombin; [3]): no binding

GGTTGGTGTGGTTGG [TFBS]
binding result (Cy3-thrombin; T linker, A, C, G linkers vary, T linker to array surface (A, C, G linkers also tested); PBS-based wash: 8.1 mM Na2HPO4, 137 mM NaCl, 1 mM MgCl2, pH 7.4)): binds

TCTGTGAGACGACGCACCGGTCGCAGGTTTTGTCTCACAG [SA (streptavidin aptamer mutant)]
binding result ([2]; indirect label, could not be fitted, nonbinder; T linker to array surface; PBS-based wash: 8.1 mM Na2HPO4, 137 mM NaCl, 1 mM MgCl2, pH 7.4)): no binding
binding result ([1]; direct label, background only; T linker to array surface; PBS-based wash: 8.1 mM Na2HPO4, 137 mM NaCl, 1 mM MgCl2, pH 7.4)): no binding
binding result (Cy3-thrombin; [3]): no binding
